Source: PubChem BioAssay AID540276 (National Center for Advancing Translational Sciences (NCATS), 2011)
The campaign covered roughly 300,000 compounds. About 5,400 (1.8%) were called active. The shares of active, inactive and inconclusive entries below differ from those in the screen. Calls follow the shape of the full dose curve; tested in HEK293 cells. Potencies beside an inconclusive call are fits to weak or partial responses and may not hold up. Non-standard residues stand in square brackets, D forms with d. Residues, ends and D or L forms follow the SMILES beside them. ξ: configuration not given here. Ac5c = NC1(C(=O)O)CCCC1; ξP = O=C(O)C1CCCN1

Test: qHTS for inhibitors of binding or entry into cells for Marburg Virus
Settings: Marburg virus pseudotyped entry inhibition, cell reporter; series mostly up to 37.8 µM
Potency is read from the fitted curve at half-maximal effect.

Compound	Potency
CC(=O)Nc1cccc(-c2cc(C)c3cc4c(cc3n2)OCO4)c1	inconclusive: 1.12 µM [activator, partial curve, poor fit]
O=C(Nc1nnc(C2=COCCO2)o1)C1CCCCC1	inconclusive: 0.794 µM [activator, full curve, poor fit]
CCOc1ccc(NC(=O)c2nn(C)cc2Br)cc1	inconclusive: 1.83 µM [activator, partial curve, poor fit]
CCc1sc(N(C(=O)Cc2ccccc2)c2cccc(F)c2)nc1-c1ccc(C)cc1	inactive
O=c1ccsc2ccccc12	inactive
O=C(NCCOc1ccc(Cl)cc1)C1CCCCC1	inconclusive: 3.55 µM [inhibitor, full curve, poor fit]
O=C(OCc1c(Cl)cccc1Cl)c1ccccn1	inactive
Cc1ccc(NC(=O)C2C(c3ccccc3)C=CC(c3ccccc3)C2C(=O)O)cc1 (stereo not given)	inconclusive: 35.5 µM [activator, partial curve, poor fit]
COCCNC(=O)CCCn1c(SCC(=O)c2ccc(Br)cc2)nc2c(sc3ccccc32)c1=O	inactive
O=C(NNC(=S)Nc1cccc(C(F)(F)F)c1)c1ccc(Cl)cc1Cl	inconclusive: 14.1 µM [inhibitor, single point]
O=S(=O)(NCC(Nc1ccc(Cl)cc1)c1ccccc1)c1ccc(Cl)cc1 (stereo not given)	inconclusive: 17.8 µM [inhibitor, single point]
OCC1(Cc2ccccc2C(F)(F)F)CCN(Cc2ccncc2)CC1	inconclusive: 14.1 µM [inhibitor, single point]
COc1ccc(C)cc1NC(=O)c1cnc2ccc(C)cn2c1=O	inactive
COc1ccc(C2(C)NC(=O)N(CC(=O)NC3CC3)C2=O)cc1 (stereo not given)	inconclusive: 2.24 µM [activator, full curve, poor fit]
O=C(CSc1nc2ccccc2c(=O)[nH]1)Nc1cccc([N+](=O)[O-])c1	inactive
CC(C)CC(=O)Nc1ccccc1N1CCCC1	inactive
O=C(/C=C/c1ccccc1)Nc1ccc(Cl)cn1	inconclusive: 3.55 µM [inhibitor, partial curve, poor fit]
C/C(N)=C(/C#N)C(=O)CSc1nnc(-c2ccccc2)n1C	inconclusive: 35.5 µM [activator, single point]
CCC(NC(=O)c1ccc(C#CC2(O)CCCCC2)cc1)C(=O)O (stereo not given)	inconclusive: 35.5 µM [activator, partial curve, poor fit]
O=C(COc1ccc(/C=N/NC(=O)c2cc3ccccc3o2)cc1Br)Nc1ccccc1	inconclusive: 3.55 µM [inhibitor, full curve, poor fit]
COc1ccc(Cc2nn3c(-c4cc(OC)c(OC)c(OC)c4)nnc3s2)cc1	inconclusive: 4.61 µM [activator, partial curve, poor fit]
COC(=O)c1sc(-c2ccccc2)cc1NC(=O)Nc1ccc(F)cc1	inactive
Cc1cc(C)cc(OCCCn2c(-c3ccc(Cl)cc3)nc3ccccc3c2=O)c1	inactive

Copied from the list.
Potency, O=C(NNC(=S)Nc1cccc(C(F)(F)F)c1)c1ccc(Cl)cc1Cl reads inconclusive: 14.1 µM [inhibitor, single point]
Potency, OCC1(Cc2ccccc2C(F)(F)F)CCN(Cc2ccncc2)CC1 reads inconclusive: 14.1 µM [inhibitor, single point]
Potency, Cc1cc(C)cc(OCCCn2c(-c3ccc(Cl)cc3)nc3ccccc3c2=O)c1 reads inactive

More results:

Compound	Potency
O=C(NCc1ccncc1)C(F)(F)C(F)(F)C(=O)NCc1ccncc1	inactive
Oc1c(CN2CCCCC2)ccc2cccnc12	inconclusive: 6.31 µM [inhibitor, partial curve, poor fit]
COc1ccc(/C=C/C(=O)NCCc2ccc(OC)c(OC)c2)cc1	inactive
CC(C)=CCCC(C)CN1CCC(n2nccc2NC(=O)C2CCCC2)CC1 (stereo not given)	inconclusive: 35.5 µM [inhibitor, partial curve, poor fit]
S=C(Nc1cccnc1)NC1CCCCCCC1	inconclusive: 1 µM [inhibitor, partial curve, poor fit]
Cc1ccc(C2CC(=O)C=C(Nc3ccc(Cl)cc3)C2)cc1 (stereo not given)	inactive
O=C(Cn1cc(C(=O)COc2ccccc2)c2ccccc21)NCc1ccco1	inactive
Cc1nc(N)[nH]c(=O)c1CCCNc1ccc(CCC2(CCl)OCCO2)cc1	inconclusive: 11.2 µM [activator, single point]
Cc1ccc(C(=O)N/N=C\c2c(C)nn(-c3ccccc3)c2Cl)cn1	inactive
O=C(O)C1CCN(C(=O)c2ccco2)CC1	inconclusive: 0.316 µM [inhibitor, full curve, poor fit]
CCOC(=O)C1CCCN1C(=O)C1(NC(C)=O)CCCC1 (stereo not given) (Ac-[Ac5c]-[ξP]-OEt)	inconclusive: 31.6 µM [activator, partial curve, poor fit]
CCOc1ccccc1C(=O)NC1CC2CCCC(C1)N2Cc1ccccc1 (stereo not given)	inconclusive: 9.2 µM [inhibitor, partial curve]
CC(=O)Nc1nnc(SCc2cc(=O)c(OC(=O)c3ccccc3)co2)s1	inconclusive: 31.6 µM [activator, single point]
COc1ccccc1NC(=O)Cn1ccn(-c2cccc3ccccc23)c(=O)c1=O	inconclusive: 35.5 µM [inhibitor, single point]
COc1ccc(-c2nn(-c3ccccc3)cc2/C=N/N=C(N)N)cc1OC	active: 10 µM
COC(=O)c1cc(Cl)c(NC(=O)C(C)C)cc1OC	inactive
CCOC(=O)c1c(CN(C)C)n(C)c2c(O)c(N=NC(N)=O)c3ccc(Br)cc3c12	inconclusive: 35.5 µM [inhibitor, single point]
O=C(Nc1nc2ccccc2n1Cc1ccccc1)c1ccco1	inconclusive: 35.5 µM [inhibitor, single point]
COc1cccc(CN(C)C(=O)c2ccc3c(=O)n4c(nc3c2)CCC4)c1OC	inactive
CC(=O)NC(c1ccc2ccccc2c1)c1ccc2cccnc2c1O (stereo not given)	inconclusive: 0.562 µM [inhibitor, full curve, poor fit]
CC(=O)c1cccc(Nc2ccc(-c3ccccc3F)nn2)c1	inconclusive: 35.5 µM [inhibitor, single point]
Cc1ccccc1NC(=O)CSc1nc2ccc(Nc3nc(N4CCOCC4)nc(N4CCOCC4)n3)cc2s1	inconclusive: 7.94 µM [inhibitor, partial curve]
